Some of the results follow.
compound: CC(C)C1=C2N=C(C=C(N2N=C1)NCC3=CC=CC=C3)NCCCCCCN; assay: log2 fold change, soluble protein after heating vs DMSO (PISA); higher = thermal stabilisation; K562 lysate, 10 uM; active = over 0.2 and 3.5 SD of the protein, either way, in both replicates (recomputed)
Procedure, shortened: (§1)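 Soluble protein was defined as the supernatant remaining after 21,000xg for 90 min, following pooling of heated aliquots and adjustment to 0.5% NP-40 at 4°C. Before that, crude K562 extract at 1 mg/mL protein in PBS pH 7.4 with 1 mM MgCl2 was treated with 10 μM compound for 30 min and heated for 3 min across 48°C-58°C. Quantification used TMTpro 16plex LC-MS/MS with channel sums equalised, and values are log-two fold changes in thermal stability relative to solvent controls from duplicates.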

Sequences of proteins named here, by UniProt entry; tags and fusion partners are left off. A change or cut given only in a name is not applied to a line headed by its entry.
UniProt Q9HCY8: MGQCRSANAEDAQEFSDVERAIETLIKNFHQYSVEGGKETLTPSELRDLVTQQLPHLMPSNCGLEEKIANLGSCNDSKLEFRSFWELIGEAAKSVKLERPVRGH
UniProt P28702: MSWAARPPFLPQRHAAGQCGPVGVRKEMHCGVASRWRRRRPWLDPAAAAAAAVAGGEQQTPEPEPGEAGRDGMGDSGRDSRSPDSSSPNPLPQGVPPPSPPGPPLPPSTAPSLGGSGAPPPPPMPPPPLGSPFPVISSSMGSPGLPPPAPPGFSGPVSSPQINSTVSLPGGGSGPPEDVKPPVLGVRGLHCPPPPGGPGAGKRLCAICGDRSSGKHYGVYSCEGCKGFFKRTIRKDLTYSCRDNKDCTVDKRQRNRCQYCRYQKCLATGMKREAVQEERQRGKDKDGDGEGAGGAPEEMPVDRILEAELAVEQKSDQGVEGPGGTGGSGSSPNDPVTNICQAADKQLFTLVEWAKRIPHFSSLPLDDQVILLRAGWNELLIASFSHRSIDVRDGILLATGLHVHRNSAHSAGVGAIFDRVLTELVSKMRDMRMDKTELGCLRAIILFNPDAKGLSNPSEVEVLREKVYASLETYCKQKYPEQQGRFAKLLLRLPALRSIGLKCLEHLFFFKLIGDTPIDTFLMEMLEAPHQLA
UniProt Q9Y3A4: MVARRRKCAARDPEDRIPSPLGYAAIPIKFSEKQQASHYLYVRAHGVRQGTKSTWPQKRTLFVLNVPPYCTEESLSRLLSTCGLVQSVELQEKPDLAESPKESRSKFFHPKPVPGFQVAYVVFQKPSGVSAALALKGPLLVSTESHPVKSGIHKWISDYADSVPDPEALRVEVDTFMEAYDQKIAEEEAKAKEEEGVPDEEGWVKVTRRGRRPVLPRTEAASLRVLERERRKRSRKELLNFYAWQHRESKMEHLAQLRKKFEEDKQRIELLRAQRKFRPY
UniProt Q7L099: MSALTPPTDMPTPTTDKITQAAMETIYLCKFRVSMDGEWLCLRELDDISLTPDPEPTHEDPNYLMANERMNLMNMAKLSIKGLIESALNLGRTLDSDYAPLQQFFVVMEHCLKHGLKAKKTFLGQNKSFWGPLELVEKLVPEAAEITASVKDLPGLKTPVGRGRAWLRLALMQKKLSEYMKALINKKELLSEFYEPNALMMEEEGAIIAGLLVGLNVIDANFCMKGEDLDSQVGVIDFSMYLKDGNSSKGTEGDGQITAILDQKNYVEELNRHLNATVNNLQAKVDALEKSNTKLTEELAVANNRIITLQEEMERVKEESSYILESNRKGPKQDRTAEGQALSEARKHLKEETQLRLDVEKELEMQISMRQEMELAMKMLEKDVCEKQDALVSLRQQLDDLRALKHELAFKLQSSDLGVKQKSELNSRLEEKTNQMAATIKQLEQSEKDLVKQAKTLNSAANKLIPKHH
UniProt Q15418, whole entry, looked up: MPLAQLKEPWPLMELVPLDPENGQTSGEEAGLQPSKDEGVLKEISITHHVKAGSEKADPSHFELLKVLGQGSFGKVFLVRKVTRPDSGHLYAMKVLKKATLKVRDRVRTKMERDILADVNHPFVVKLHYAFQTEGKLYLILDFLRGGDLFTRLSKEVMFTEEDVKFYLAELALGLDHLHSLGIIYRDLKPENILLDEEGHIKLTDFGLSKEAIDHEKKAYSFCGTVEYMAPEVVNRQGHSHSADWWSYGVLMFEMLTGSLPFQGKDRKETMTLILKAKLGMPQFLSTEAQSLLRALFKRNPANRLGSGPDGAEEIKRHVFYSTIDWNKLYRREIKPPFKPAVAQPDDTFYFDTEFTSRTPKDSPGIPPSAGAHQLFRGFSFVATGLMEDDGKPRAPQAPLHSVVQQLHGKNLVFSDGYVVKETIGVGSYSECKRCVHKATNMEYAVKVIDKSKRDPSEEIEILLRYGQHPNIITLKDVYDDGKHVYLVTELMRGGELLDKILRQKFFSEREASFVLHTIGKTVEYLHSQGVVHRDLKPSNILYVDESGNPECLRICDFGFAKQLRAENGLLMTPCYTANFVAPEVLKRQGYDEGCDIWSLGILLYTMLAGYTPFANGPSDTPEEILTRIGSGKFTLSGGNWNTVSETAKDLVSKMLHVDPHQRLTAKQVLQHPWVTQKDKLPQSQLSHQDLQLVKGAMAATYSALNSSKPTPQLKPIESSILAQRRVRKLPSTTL
UniProt P31949: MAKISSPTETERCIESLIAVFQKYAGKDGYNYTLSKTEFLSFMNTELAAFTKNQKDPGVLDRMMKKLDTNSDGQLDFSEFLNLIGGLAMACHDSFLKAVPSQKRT
UniProt O00442: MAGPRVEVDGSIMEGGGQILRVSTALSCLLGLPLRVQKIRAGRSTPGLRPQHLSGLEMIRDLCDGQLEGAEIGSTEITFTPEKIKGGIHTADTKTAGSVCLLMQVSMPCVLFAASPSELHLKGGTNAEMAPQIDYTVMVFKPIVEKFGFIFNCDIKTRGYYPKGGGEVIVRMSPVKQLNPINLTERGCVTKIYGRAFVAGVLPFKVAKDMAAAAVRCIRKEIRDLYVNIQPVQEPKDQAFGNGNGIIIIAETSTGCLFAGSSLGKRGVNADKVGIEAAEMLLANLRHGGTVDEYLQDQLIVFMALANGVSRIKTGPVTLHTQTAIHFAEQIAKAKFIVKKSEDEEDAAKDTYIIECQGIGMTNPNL
UniProt P29034: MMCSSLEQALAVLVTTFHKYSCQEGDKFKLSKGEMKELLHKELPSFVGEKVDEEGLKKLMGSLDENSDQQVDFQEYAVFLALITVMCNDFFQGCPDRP
UniProt Q7L4I2: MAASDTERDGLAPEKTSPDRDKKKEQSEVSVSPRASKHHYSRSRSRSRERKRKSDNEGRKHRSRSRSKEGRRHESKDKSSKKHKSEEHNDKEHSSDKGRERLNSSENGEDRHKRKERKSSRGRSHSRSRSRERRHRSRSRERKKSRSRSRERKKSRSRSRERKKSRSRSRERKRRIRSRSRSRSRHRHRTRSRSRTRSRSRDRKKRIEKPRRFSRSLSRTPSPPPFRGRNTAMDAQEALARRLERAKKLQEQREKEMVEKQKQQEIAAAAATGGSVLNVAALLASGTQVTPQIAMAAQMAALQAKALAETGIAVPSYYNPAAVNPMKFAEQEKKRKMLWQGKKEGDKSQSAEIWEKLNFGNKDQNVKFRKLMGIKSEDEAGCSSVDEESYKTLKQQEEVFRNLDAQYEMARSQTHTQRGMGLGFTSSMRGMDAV
UniProt O95059: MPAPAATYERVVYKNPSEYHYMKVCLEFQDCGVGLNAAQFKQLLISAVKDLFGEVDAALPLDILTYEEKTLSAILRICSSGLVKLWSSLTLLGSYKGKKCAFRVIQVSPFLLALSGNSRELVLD
UniProt Q96CM3: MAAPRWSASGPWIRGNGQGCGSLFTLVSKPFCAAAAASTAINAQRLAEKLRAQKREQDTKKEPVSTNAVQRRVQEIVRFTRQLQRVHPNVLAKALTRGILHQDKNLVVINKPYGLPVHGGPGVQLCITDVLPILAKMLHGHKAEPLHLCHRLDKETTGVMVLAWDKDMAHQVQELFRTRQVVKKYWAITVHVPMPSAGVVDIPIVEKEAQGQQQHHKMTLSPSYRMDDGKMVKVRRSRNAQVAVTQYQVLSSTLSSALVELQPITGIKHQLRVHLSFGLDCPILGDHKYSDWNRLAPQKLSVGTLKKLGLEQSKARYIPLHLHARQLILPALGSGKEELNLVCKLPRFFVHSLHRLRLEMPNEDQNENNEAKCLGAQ
UniProt P57060: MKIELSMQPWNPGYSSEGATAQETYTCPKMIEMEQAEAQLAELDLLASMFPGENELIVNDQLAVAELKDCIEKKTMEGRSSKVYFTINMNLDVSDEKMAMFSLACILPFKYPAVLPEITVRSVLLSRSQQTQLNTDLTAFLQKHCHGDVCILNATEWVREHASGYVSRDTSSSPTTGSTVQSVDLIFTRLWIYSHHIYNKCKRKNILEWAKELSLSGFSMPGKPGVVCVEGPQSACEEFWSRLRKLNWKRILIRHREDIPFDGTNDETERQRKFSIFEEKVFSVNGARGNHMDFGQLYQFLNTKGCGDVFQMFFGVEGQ
UniProt Q92766: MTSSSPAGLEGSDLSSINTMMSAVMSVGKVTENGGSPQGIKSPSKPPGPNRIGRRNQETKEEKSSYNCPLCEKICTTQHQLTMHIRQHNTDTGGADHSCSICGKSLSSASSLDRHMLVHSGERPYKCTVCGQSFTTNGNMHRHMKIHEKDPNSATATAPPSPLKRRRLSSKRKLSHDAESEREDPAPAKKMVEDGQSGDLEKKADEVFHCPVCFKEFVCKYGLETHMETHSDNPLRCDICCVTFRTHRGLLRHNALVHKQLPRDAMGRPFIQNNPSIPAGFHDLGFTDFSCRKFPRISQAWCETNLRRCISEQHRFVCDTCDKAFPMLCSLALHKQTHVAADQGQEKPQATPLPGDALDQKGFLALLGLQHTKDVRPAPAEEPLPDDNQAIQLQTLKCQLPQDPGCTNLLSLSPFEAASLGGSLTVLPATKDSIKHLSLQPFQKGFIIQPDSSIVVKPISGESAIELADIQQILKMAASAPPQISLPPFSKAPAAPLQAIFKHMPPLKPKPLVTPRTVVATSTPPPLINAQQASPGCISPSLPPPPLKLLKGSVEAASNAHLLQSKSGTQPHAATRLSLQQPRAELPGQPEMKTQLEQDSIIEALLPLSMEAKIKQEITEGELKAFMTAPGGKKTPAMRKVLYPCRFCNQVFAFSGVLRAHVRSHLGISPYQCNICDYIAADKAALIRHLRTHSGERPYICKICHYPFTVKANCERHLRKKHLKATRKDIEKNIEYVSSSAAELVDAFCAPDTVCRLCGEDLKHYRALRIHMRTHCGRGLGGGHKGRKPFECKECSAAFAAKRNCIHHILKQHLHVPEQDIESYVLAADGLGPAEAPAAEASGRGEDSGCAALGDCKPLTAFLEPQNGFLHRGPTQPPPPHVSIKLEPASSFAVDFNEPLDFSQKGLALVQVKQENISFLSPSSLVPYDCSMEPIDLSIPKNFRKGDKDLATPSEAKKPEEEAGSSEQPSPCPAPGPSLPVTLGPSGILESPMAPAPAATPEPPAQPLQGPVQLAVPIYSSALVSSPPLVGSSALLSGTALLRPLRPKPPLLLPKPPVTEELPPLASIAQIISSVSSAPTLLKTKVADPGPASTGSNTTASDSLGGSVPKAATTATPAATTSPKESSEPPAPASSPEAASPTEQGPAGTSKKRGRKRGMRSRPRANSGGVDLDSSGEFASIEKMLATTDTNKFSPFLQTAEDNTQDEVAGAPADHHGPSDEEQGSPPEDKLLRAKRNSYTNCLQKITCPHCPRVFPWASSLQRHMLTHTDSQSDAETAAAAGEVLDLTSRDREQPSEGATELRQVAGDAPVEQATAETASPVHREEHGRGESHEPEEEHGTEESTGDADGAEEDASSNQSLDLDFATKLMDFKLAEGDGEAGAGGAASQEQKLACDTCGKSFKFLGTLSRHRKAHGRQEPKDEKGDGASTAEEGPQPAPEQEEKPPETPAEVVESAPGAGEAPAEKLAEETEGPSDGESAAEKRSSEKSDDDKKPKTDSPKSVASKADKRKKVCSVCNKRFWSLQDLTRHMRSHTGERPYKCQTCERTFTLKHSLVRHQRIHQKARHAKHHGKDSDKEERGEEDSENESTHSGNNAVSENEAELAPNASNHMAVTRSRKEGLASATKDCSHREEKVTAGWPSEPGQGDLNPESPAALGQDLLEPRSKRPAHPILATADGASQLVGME
UniProt Q8N5L8: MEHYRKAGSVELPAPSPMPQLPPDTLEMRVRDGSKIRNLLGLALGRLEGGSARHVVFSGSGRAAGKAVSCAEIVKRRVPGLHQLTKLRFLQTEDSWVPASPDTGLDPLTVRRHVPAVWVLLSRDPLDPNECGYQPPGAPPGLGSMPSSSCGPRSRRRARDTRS
UniProt Q9NYV6: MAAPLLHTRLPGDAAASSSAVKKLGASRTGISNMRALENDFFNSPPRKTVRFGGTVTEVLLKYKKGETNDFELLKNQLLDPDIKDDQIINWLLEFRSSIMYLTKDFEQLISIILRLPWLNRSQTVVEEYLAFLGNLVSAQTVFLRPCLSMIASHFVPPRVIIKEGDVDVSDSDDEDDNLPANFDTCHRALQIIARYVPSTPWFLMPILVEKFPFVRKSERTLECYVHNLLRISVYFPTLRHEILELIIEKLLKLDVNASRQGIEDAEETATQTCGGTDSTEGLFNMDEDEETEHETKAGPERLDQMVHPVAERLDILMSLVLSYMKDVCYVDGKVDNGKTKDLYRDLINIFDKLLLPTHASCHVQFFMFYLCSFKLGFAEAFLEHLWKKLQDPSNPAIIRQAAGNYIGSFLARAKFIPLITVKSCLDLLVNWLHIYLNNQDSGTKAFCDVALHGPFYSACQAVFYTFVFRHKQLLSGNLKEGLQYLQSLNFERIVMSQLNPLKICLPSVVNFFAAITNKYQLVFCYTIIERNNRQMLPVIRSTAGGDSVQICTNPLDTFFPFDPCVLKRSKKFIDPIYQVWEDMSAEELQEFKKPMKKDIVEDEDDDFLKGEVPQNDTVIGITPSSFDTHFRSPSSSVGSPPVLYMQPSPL
UniProt Q96FQ6: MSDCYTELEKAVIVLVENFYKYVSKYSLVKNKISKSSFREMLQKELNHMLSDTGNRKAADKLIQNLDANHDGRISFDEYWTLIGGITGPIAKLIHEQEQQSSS

Target | log2 fold change
RPS7, A0A2R8Y623 | inactive: -0.145
S100A14 (UniProt Q9HCY8) | inactive: 0
RPS6KA3 (UniProt P51812) | inactive: -0.11
RXRB isoform 3 (UniProt P28702) | inactive: 0.106
RSBN1L (UniProt Q6PCB5) | inactive: 0.004
RPN2 (UniProt P04844) | inactive: -0.021
RPS2 (UniProt P15880) | inactive: 0.01
RPS3A (UniProt P61247) | inactive: -0.024
RRP7A (UniProt Q9Y3A4) | inactive: 0.002
RPS24 isoform 4 (UniProt P62847) | inactive: -0.004
S100A10 (UniProt P60903) | inactive: -0.008
RUFY3 isoform 2 (UniProt Q7L099) | inactive: 0.018
RTL10 (UniProt Q7L3V2) | inactive: -0.044
RPS6KA1 (UniProt Q15418) | inactive: -0.011
RUVBL1 (UniProt Q9Y265) | inactive: 0.003

compound: CC1=C(C(CC(=O)N1)C2=CC=C(C=C2)C(F)(F)F)C(=O)NC3=C(C=C4C(=C3)C=NN4)F; assay: as above
Procedure, shortened: as §1

Target | log2 fold change
RPS27L (UniProt Q71UM5) | inactive: 0.031
RTTN (UniProt Q86VV8) | inactive: -0.053
S100A11 (UniProt P31949) | inactive: -0.024
RTCA (UniProt O00442) | inactive: -0.018
S100A2 (UniProt P29034) | inactive: -0.178
RSRC2 (UniProt Q7L4I2) | inactive: -0.009
RPP14 (UniProt O95059) | inactive: -0.068
RPS26 (UniProt P62854) | inactive: 0.058
RPP38 (UniProt P78345) | inactive: -0.021
RPUSD4 (UniProt Q96CM3) | inactive: -0.061
RWDD2B (UniProt P57060) | inactive: -0.198
RREB1 isoform 2 (UniProt Q92766) | inactive: -0.003
RPP25L (UniProt Q8N5L8) | inactive: -0.017
RPS6KA3 (UniProt P51812) | inactive: -0.043
RXRB isoform 3 (UniProt P28702) | inactive: 0.026
RSBN1L (UniProt Q6PCB5) | inactive: 0.028
RPN2 (UniProt P04844) | inactive: 0.008
RPS2 (UniProt P15880) | inactive: -0.025
RPS3A (UniProt P61247) | inactive: -0.005
RPS24 isoform 4 (UniProt P62847) | inactive: -0.017
RRN3 (UniProt Q9NYV6) | inactive: -0.232
S100A10 (UniProt P60903) | inactive: 0.756
RTL10 (UniProt Q7L3V2) | inactive: 0.004
RPS6KA1 (UniProt Q15418) | inactive: -0.032
RUVBL1 (UniProt Q9Y265) | inactive: -0.004
S100A16 (UniProt Q96FQ6) | inactive: 0.978
